# Results from US20020111305A1, “Antiviral peptides” (priority 1998, published 2002).
# Not every detail of the peptide structures is certain; ends, links or a residue may be inferred. Where no end group is shown, it is not given here.
# Tested on: HIV-1 III-b
# Assay: HIV-1 neutralization assay (syncytia-forming on MT-2 cells)
# Assay type: cell-based, Human Immuno-deficiency Virus Type 1
# Settings: day 21; 457 TCID50 HIV per ml; 2 hours at 37° C.; maximum 800 μg/ml
# Procedure: A neutralization assay was performed on HIV-1 III-b as substantially described by Groenink M. et al., J. Virol 69, 523-527 (1995). In short, this assay comes down to the virus-neutralizing capacity of the different peptides being tested with an inoculum of 457 TCID50HIV per ml per neutralization, which is incubated at 37° C. for two hours with a twofold dilution series of the peptide for testing (maximum 800 μg/ml final concentration). The incubations are performed in a 5 mM phosphate buffer. On day 7, 14 and 21 the neutralization is assessed on the basis of the detected cytopathic effect (syncytia-forming) on MT-2 cells.
sequence,measurement,value
"LLLFLLKKRKKRKY [peptide 11, LLLFLLKKRKKRKY]",neutralizing capacity: μg/ml necessary for neutralization,25 µg/mL
